In US20250041574A1 (TARIS Biomedical LLC, priority 2022, published 2025):

How the values were obtained:
[1] = system: ERK1/2 phosphorylation in orthotopic bladder UM-UC-1 tumors; test: ERK1/2 phosphorylation in orthotopic UM-UC-1 tumors (capillary immunoblotting); assay type: in vivo, nude rats; settings: IVES 6 mg/kg
[2] = rats dosed orally 20 mg/kg, 2 and 7 hours
[3] = bladder

Question: What does the source list for COc1cc(OC)cc(N(CCNC(C)C)c2ccc3ncc(-c4cnn(C)c4)nc3c2)c1 [erdafitinib, N-(3,5-dimethoxyphenyl)-N′-(1-methylethyl)-N-[3-(1-methyl-1H-pyrazol-4-yl)quinoxalin-6-yl]ethane-1,2-diamine]?
Answer: pERK/ERK (relative to vehicle group) ([1]; 7 hours post dose): 0.60; pERK/ERK (relative to vehicle group) ([1]; 48 hours post dose): 0.71; pERK/ERK (relative to 48-hour vehicle group) ([1]; 120 hours post dose): 0.98; fold lower exposure in s.c. tumors compared with orthotopic tumors [2]: Roughly 2 fold; fold concentration in urothelial layer compared to underlying tissue layers [3]: > 10 fold
